Among the data in article PMC10908827, “Structural insight into an Arl1–ArfGEF complex involved in Golgi recruitment of a GRIP-domain golgin” (Nature Communications, 2024) are binding values, retold here.

No constants are given. Whether binding was seen depends on the method and setting. Binding seen in cells or lysates may run through a third protein. Some binding calls cover weakened binding; strength is not graded here. For some of these results: Sequences can lack the tags named with a protein.

For experiment [1], the target named is T1, 3xFLAG tagged WT Gea2 (S. cerevisiae) (UniProt P39993).
T1 sequence: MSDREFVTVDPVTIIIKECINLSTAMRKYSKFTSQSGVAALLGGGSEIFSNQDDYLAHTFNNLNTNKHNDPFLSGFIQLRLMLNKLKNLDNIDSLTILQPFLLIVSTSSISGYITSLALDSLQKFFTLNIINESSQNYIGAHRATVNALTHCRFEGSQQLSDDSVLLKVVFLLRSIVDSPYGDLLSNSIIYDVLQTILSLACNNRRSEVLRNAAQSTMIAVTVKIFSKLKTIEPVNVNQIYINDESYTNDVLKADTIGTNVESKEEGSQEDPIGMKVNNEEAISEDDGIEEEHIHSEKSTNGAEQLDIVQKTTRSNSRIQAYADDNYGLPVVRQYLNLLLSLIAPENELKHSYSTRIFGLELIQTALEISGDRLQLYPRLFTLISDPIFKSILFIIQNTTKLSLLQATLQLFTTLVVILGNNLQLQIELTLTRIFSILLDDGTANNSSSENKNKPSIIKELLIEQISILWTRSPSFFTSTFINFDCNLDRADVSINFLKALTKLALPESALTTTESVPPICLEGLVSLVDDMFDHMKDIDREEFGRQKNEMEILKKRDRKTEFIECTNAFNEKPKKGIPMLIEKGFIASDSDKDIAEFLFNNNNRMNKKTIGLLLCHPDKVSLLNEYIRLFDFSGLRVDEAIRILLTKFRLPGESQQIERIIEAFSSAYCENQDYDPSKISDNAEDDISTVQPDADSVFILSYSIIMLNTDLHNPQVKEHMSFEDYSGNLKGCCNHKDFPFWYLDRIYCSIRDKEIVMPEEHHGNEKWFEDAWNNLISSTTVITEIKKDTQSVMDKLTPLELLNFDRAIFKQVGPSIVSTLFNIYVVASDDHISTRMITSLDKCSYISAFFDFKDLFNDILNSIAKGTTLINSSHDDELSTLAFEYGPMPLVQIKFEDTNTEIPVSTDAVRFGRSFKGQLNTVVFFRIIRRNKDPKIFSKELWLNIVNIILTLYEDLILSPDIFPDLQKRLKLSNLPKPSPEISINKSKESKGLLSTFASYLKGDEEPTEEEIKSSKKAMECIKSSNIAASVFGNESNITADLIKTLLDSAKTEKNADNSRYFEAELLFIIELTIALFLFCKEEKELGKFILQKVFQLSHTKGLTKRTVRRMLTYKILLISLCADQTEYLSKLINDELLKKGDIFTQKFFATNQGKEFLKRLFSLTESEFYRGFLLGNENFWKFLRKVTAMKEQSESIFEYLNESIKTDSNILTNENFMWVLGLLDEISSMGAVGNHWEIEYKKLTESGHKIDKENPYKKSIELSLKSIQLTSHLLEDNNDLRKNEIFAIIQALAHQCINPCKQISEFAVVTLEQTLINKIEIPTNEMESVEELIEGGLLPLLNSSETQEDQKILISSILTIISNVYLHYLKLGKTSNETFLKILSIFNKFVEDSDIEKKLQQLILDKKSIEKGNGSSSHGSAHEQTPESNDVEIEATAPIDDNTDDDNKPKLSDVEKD
In words: co-IP; Gea2-3xFLAG and Arl1-3xHA co-expressed in gea2∆arl1∆ yeast; lysate (20 mM HEPES pH 7.2, 100 mM KCl, 5 mM MgCl2, 1% Triton X-100, 5 mM EDTA, 10% glycerol) on anti-FLAG M2 magnetic beads overnight at 4 °C; anti-HA blot.

For experiment [2], the target named is T2, 3xFLAG tagged WT Gea2 (S. cerevisiae), P39993.
T2 chain: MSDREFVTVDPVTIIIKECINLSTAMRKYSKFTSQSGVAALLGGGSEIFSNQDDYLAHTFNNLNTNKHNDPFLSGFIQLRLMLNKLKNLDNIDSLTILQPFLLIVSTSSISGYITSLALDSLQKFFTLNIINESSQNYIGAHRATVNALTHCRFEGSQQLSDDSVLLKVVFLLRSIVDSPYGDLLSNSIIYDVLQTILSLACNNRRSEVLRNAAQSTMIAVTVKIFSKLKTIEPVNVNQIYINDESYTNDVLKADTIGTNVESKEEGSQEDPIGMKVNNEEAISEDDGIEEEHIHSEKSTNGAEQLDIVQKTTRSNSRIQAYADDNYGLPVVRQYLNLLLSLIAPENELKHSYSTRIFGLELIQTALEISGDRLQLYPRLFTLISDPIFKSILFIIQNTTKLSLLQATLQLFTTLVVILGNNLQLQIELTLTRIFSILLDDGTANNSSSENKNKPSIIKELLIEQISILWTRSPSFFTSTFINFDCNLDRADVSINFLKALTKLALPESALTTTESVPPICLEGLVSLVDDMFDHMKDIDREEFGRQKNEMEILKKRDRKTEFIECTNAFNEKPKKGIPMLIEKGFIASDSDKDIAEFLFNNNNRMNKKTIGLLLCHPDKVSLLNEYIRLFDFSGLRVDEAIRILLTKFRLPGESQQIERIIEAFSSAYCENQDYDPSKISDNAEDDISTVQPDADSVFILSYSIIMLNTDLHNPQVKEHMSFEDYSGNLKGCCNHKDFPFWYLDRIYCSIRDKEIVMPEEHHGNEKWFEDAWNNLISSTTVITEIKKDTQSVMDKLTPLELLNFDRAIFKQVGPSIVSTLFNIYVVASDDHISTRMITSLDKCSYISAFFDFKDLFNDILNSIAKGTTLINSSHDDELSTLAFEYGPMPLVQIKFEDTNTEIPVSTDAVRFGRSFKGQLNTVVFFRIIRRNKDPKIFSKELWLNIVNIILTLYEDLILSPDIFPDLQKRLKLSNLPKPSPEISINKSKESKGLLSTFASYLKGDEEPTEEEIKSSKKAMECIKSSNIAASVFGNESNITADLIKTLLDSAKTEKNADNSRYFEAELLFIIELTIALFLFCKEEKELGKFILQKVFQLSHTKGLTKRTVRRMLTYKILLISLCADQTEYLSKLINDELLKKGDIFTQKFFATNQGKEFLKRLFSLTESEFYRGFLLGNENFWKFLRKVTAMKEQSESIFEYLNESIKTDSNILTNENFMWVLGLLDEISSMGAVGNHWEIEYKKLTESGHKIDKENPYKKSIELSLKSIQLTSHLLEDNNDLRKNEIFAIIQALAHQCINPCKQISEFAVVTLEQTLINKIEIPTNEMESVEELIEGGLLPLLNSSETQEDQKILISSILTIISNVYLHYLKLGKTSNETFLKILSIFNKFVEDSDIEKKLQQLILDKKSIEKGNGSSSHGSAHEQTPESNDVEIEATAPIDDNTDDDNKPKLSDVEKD
The experiment is described as above. The settings on record: remark: other sources report otherwise.

Experiment [3] addresses Gea2 L167A, F171A double mutant (S. cerevisiae) (UniProt P39993). Put plainly: co-IP; dimerisation of Gea2 variants from yeast (Supplementary Fig. 12); tags and details not shown.

B1: 3xHA tagged Arl1 Y78L (protein, UniProt P38116 1-183)
chain: MGNIFSSMFDKLWGSNKELRILILGLDGAGKTTILYRLQIGEVVTTKPTIGFNVETLSYKNLKLNVWDLGGQTSIRPLWRCYYADTAAVIFVVDSTDKDRMSTASKELHLMLQEEELQDAALLVFANKQDQPGALSASEVSKELNLVELKDRSWSIVASSAIKGEGITEGLDWLIDVIKEEQL
As for B1, the binding result in experiment [1] is reported as “binds”.

B2: 3xHA tagged Arl1 L69A (protein, UniProt P38116 1-183)
chain: MGNIFSSMFDKLWGSNKELRILILGLDGAGKTTILYRLQIGEVVTTKPTIGFNVETLSYKNLKLNVWDAGGQTSIRPYWRCYYADTAAVIFVVDSTDKDRMSTASKELHLMLQEEELQDAALLVFANKQDQPGALSASEVSKELNLVELKDRSWSIVASSAIKGEGITEGLDWLIDVIKEEQL
Regarding B2, the binding entry in experiment [1] is listed as “binds”.

B3: 3xHA tagged WT Arl1, P38116 1-183 (protein)
chain: MGNIFSSMFDKLWGSNKELRILILGLDGAGKTTILYRLQIGEVVTTKPTIGFNVETLSYKNLKLNVWDLGGQTSIRPYWRCYYADTAAVIFVVDSTDKDRMSTASKELHLMLQEEELQDAALLVFANKQDQPGALSASEVSKELNLVELKDRSWSIVASSAIKGEGITEGLDWLIDVIKEEQL
On to B3, for which, in experiment [2], the binding result was “binds”.

B4: Gea2 L167A, F171A double mutant (protein, UniProt P39993 1-1459)
chain: MSDREFVTVDPVTIIIKECINLSTAMRKYSKFTSQSGVAALLGGGSEIFSNQDDYLAHTFNNLNTNKHNDPFLSGFIQLRLMLNKLKNLDNIDSLTILQPFLLIVSTSSISGYITSLALDSLQKFFTLNIINESSQNYIGAHRATVNALTHCRFEGSQQLSDDSVLAKVVALLRSIVDSPYGDLLSNSIIYDVLQTILSLACNNRRSEVLRNAAQSTMIAVTVKIFSKLKTIEPVNVNQIYINDESYTNDVLKADTIGTNVESKEEGSQEDPIGMKVNNEEAISEDDGIEEEHIHSEKSTNGAEQLDIVQKTTRSNSRIQAYADDNYGLPVVRQYLNLLLSLIAPENELKHSYSTRIFGLELIQTALEISGDRLQLYPRLFTLISDPIFKSILFIIQNTTKLSLLQATLQLFTTLVVILGNNLQLQIELTLTRIFSILLDDGTANNSSSENKNKPSIIKELLIEQISILWTRSPSFFTSTFINFDCNLDRADVSINFLKALTKLALPESALTTTESVPPICLEGLVSLVDDMFDHMKDIDREEFGRQKNEMEILKKRDRKTEFIECTNAFNEKPKKGIPMLIEKGFIASDSDKDIAEFLFNNNNRMNKKTIGLLLCHPDKVSLLNEYIRLFDFSGLRVDEAIRILLTKFRLPGESQQIERIIEAFSSAYCENQDYDPSKISDNAEDDISTVQPDADSVFILSYSIIMLNTDLHNPQVKEHMSFEDYSGNLKGCCNHKDFPFWYLDRIYCSIRDKEIVMPEEHHGNEKWFEDAWNNLISSTTVITEIKKDTQSVMDKLTPLELLNFDRAIFKQVGPSIVSTLFNIYVVASDDHISTRMITSLDKCSYISAFFDFKDLFNDILNSIAKGTTLINSSHDDELSTLAFEYGPMPLVQIKFEDTNTEIPVSTDAVRFGRSFKGQLNTVVFFRIIRRNKDPKIFSKELWLNIVNIILTLYEDLILSPDIFPDLQKRLKLSNLPKPSPEISINKSKESKGLLSTFASYLKGDEEPTEEEIKSSKKAMECIKSSNIAASVFGNESNITADLIKTLLDSAKTEKNADNSRYFEAELLFIIELTIALFLFCKEEKELGKFILQKVFQLSHTKGLTKRTVRRMLTYKILLISLCADQTEYLSKLINDELLKKGDIFTQKFFATNQGKEFLKRLFSLTESEFYRGFLLGNENFWKFLRKVTAMKEQSESIFEYLNESIKTDSNILTNENFMWVLGLLDEISSMGAVGNHWEIEYKKLTESGHKIDKENPYKKSIELSLKSIQLTSHLLEDNNDLRKNEIFAIIQALAHQCINPCKQISEFAVVTLEQTLINKIEIPTNEMESVEELIEGGLLPLLNSSETQEDQKILISSILTIISNVYLHYLKLGKTSNETFLKILSIFNKFVEDSDIEKKLQQLILDKKSIEKGNGSSSHGSAHEQTPESNDVEIEATAPIDDNTDDDNKPKLSDVEKD
As for B4, the binding result in experiment [3] was “binds”.
